Experimental findings from patent US7517658B2, “Methods for preparing compositions using a SNORF33 receptor” (H. Lundbeck A/S, priority 1999, dated 2009) are described below.

Chains of the proteins cited; added tags and fusions are not shown.
UniProt Q923Y9, whole entry: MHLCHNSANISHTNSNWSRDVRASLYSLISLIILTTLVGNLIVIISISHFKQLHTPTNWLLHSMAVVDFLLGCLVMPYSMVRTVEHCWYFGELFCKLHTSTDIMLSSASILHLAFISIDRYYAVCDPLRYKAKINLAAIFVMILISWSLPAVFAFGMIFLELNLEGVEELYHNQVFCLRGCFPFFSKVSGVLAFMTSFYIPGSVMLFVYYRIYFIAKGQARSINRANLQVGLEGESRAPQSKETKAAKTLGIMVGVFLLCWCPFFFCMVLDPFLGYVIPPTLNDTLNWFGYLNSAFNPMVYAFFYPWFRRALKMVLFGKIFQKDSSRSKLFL

Structures are written as SMILES.

This assay addresses rSNORF33 (Rattus norvegicus, UniProt Q923Y9). The experiment in a line: Intracellular cAMP release in rSNORF33-transfected COS-7 cells. The settings on record: transiently transfected COS-7 cells; 3–8 experiments; read-out: Mean EC50 ± S.E.M., stimulation of rSNORF33 measured by intracellular cAMP release. Further details: expressed in transfected cells; host or cells: COS-7 (transient). The assay is classed as cell-based. How it is done:
The receptor-mediated stimulation or inhibition of cyclic AMP (cAMP) formation may be assayed in cells expressing the mammalian receptors. Cells are plated in 96-well plates or other vessels and preincubated in a buffer such as HEPES buffered saline (NaCl (150 mM), CaCl2 (1 mM), KCl (5 mM), glucose (10 mM)) supplemented with a phosphodiesterase inhibitor such as 5 mM theophylline, with or without protease inhibitor cocktail (For example, a typical inhibitor cocktail contains 2 μg/ml aprotinin, […] leupeptin, and 10 μg/ml phosphoramidon.) for 20 min at 37° C., in 5% CO2. Test compounds are added with or without […] forskolin and incubated for an additional 10 min at 37° C. The medium is then aspirated and the reaction stopped by the addition of 100 mM HCl or other methods. The plates are stored at 4° C. for 15 min, and the cAMP content in the stopping solution is measured by radioimmunoassay. Radioactivity may be quantified using a gamma counter equipped with data reduction software. […]
COS-7 cells were transiently transfected with rSNORF33 gene using the calcium phosphate method and plated in 96-well plates. […] For cAMP measurement, plates were thawed and the cAMP content in each well was measured by radioimmunoassay cAMP Scintillation Proximity Assay (Amersham Pharmacia Biotech). Radioactivity was quantified using microbeta Trilux counter (Wallac).

By EC50 is commonly meant the concentration at which the effect is half-maximal.

Turning to `CNCCC(Oc1ccc(C(F)(F)F)cc1)c1ccccc1` (stereo not shown) [Fluoxetine], the EC50 was found to be 5.52 ± 3.52 µM.
